Assay results from paper PMC4408008.
These are yes or no findings as the source states them, for the method shown. In cells and extracts the contact can be indirect. Some binding calls cover weakened binding; strength is not graded here. Tags and fused reporters may be left off the sequences shown.

Chains of the proteins cited; added tags and fusions are not shown.
UniProt Q12888: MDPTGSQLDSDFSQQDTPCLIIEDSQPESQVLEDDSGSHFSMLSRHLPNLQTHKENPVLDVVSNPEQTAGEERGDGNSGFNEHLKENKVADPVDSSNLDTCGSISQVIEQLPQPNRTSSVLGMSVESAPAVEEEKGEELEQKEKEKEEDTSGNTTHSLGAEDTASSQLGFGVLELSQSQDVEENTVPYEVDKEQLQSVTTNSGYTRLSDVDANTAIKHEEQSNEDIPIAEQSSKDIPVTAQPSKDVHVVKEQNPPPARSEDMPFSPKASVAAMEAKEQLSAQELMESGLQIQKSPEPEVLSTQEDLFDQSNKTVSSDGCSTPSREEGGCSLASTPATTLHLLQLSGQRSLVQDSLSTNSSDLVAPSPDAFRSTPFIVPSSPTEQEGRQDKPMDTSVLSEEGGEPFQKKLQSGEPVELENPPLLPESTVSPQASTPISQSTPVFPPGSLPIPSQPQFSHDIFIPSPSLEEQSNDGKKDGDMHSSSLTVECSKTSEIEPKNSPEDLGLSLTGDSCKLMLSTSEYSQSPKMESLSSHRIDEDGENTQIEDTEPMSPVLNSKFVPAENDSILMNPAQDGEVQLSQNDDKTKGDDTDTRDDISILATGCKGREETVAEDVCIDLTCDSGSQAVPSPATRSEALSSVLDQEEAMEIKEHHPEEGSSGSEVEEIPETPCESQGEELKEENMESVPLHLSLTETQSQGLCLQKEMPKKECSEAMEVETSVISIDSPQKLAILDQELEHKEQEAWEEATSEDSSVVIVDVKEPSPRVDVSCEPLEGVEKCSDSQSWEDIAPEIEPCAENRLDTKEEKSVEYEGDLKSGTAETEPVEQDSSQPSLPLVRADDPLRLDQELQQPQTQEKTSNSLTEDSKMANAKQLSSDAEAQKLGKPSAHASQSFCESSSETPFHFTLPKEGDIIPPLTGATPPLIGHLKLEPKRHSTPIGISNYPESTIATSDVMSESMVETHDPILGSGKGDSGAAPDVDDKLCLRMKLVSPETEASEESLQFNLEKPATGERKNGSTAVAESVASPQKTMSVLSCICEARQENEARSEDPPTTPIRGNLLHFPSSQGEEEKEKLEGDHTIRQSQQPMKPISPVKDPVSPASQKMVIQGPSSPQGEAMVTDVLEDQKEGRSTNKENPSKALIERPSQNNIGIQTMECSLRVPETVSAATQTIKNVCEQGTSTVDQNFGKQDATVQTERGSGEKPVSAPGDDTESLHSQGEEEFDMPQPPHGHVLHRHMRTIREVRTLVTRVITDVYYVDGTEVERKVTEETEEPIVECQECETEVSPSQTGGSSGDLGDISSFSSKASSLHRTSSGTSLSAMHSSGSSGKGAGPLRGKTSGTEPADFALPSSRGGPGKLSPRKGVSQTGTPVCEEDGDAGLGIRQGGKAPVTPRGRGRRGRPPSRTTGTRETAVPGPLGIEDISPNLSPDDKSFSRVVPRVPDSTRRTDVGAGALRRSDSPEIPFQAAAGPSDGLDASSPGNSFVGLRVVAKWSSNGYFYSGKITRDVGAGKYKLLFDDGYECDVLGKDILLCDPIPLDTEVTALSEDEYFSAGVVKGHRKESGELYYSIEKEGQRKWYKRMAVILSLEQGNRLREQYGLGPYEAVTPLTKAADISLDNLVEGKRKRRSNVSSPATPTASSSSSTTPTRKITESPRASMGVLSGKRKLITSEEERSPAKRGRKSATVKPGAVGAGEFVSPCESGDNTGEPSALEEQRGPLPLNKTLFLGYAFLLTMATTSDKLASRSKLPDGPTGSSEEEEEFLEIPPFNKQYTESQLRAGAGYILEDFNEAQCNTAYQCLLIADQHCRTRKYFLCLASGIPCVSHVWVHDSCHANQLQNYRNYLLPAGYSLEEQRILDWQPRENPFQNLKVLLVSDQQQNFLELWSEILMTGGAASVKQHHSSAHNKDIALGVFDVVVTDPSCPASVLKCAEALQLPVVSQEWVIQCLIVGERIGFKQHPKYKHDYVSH

Target: p53-binding protein 1 (53BP1), endogenous (human (endogenous in HEK293T)) (UniProt Q12888)
Test: co-IP; FLAG-tagged WT-KAP1 or 4KR in KAP1 depleted HEK293T cells, harvested 1 hour following 10Gy-IR (with or without IR), anti-53BP1 immunoprecipitation, immunoblotting

binding: binds
B1: FLAG-tagged KAP1 4KR mutant (protein, UniProt Q13263 1-835)
chain: MAASAAAASAAAASAASGSPGPGEGSAGGEKRSTAPSAAASASASAAASSPAGGGAEALELLEHCGVCRERLRPEREPRLLPCLHSACSACLGPAAPAAANSSGDGGAAGDGTVVDCPVCKQQCFSKDIVENYFMRDSGSKAATDAQDANQCCTSCEDNAPATSYCVECSEPLCETCVEAHQRVKYTKDHTVRSTGPAKSRDGERTVYCNVHKHEPLVLFCESCDTLTCRDCQLNAHKDHQYQFLEDAVRNQRKLLASLVKRLGDRHATLQKSTKEVRSSIRQVSDVQKRVQVDVKMAILQIMKELNKRGRVLVNDAQKVTEGQQERLERQHWTMTKIQKHQEHILRFASWALESDNNTALLLSKKLIYFQLHRALRMIVDPVEPHGEMKFQWDLNAWTKSAEAFGKIVAERPGTNSTGPAPMAPPRAPGPLSKQGSGSSQPMEVQEGYGFGSGDDPYSSAEPHVSGVRRSRSGEGEVSGLMRKVPRVSLERLDLDLTADSQPPVFKVFPGSTTEDYNLIVIERGAAAAATGQPGTAPAGTPGAPPLAGMAIVKEEETEAAIGAPPTATEGPETKPVLMALAEGPGAEGPRLASPSGSTSSGLEVVAPEGTSAPGGGPGTLDDSATICRVCQKPGDLVMCNQCEFCFHLDCHLPALQDVPGEEWSCSLCHVLPDLKEEDGSLSLDGADSTGVVAKLSPANQRKCERVLLALFCHEPCRPLHQLATDSTFSLDQPGGTLDLTLIRARLQEKLSPPYSSPQEFAQDVGRMFRQFNKLTEDKADVQSIIGLQRFFETRMNEAFGDTKFSAVLVEPPPMSLPGAGLSSQELSGGPGDGP
